From US7763632B2, “Pyrimidinyl amide compounds which inhibit leukocyte adhesion mediated by VLA-4” (Elan Pharmaceuticals, Inc., priority 2005, dated 2010)
Some entries share one result that the patent states for a list of compounds.

Amino acid sequences for entries named in this document (tags omitted). Residues count along the entry.
UniProt P13612, 34-1032: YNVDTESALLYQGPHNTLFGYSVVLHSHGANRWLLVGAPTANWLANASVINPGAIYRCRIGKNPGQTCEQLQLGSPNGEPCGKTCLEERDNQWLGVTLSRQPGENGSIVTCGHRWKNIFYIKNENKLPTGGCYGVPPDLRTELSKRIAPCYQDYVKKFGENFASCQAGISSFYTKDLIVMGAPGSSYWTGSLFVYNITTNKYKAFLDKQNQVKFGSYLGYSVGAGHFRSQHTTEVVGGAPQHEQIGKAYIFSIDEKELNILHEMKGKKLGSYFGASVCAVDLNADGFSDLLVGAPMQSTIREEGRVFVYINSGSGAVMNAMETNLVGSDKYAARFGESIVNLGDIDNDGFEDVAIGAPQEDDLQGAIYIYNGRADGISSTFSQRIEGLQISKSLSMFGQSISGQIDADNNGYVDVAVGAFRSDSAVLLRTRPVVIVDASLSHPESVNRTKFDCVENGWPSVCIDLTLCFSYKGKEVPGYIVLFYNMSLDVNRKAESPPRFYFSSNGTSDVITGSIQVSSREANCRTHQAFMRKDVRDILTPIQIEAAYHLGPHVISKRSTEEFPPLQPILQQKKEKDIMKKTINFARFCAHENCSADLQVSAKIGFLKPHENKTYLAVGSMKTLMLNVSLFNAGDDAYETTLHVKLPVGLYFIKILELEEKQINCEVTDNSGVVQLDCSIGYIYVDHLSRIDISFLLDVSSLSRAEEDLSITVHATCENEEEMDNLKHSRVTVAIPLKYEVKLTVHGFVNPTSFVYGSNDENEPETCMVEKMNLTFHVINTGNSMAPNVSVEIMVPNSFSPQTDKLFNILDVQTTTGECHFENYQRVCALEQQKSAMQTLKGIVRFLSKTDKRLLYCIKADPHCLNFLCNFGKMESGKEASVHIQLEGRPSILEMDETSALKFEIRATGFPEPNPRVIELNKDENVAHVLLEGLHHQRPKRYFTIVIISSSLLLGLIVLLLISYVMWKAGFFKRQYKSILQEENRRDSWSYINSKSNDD

Target: T1, α4β1 integrin (Homo sapiens, UniProt P05556+P13612)
T1 construct: α4β1 Integrin Adhesion Assay: Jurkat™ Cell Adhesion to Human Plasma Fibronectin Procedure; endogenous in cells; host or cells: Jurkat cells
Experiment: α4β1 Integrin Adhesion Assay: Jurkat cell adhesion to human plasma fibronectin
Type: cell-based
Settings: fibronectin assay Example A, Jurkat cells; IC50 calculated with and without human serum, not stated which applies

| Structure (SMILES) | IC50 |
| --- | --- |
| CCN(CC)c1ncc(N(CC)C(=O)N2CCSC2)c(N[C@@H](Cc2ccc(OC(=O)N3CCCC3)cc2)C(=O)O)n1 [N-[2-diethylamino-5-{N-ethyl-N-(3-thiapyrrolidin-1-ylcarbonyl)amino}pyrimidin-4-yl]-L-4′-{(pyrrolidin-1-yl)carbonyloxy}phenylalanine] | < 10 µM |
| CCN(CC)c1ncc(N(CC)C(=O)N(CC)C(C)C)c(N[C@@H](Cc2ccc(OC(=O)N3CCCC3)cc2)C(=O)O)n1 [N-[2-diethylamino-5-{N-ethyl-N-(N-ethyl-N-iso-propylaminocarbonyl)amino}pyrimidin-4-yl]-L-4′-{(pyrrolidin-1-yl)carbonyloxy}phenylalanine] | < 10 µM |
| CCN(CC)c1ncc(N(CC)C(=O)c2ccco2)c(N[C@@H](Cc2ccc(OC(=O)N3CCCC3)cc2)C(=O)O)n1 [N-[2-diethylamino-5-{N-ethyl-N-(furan-2-ylcarbonyl)amino}pyrimidin-4-yl]-L-4′-{(pyrrolidin-1-yl)carbonyloxy}phenylalanine] | < 10 µM |
| CCN(CC)c1ncc(N(CC)C(=O)C(C)C)c(N[C@@H](Cc2ccc(OC(=O)N3CCCC3)cc2)C(=O)O)n1 [N-[2-diethylamino-5-{N-ethyl-N-(iso-propylcarbonyl)amino}pyrimidin-4-yl]-L-4′-{(pyrrolidin-1-yl)carbonyloxy}phenylalanine] | < 10 µM |
| CCN(CC)c1ncc(N(CC)C(=O)C(C)(C)C)c(N[C@@H](Cc2ccc(OC(=O)N3CCCC3)cc2)C(=O)O)n1 [N-[2-diethylamino-5-{N-ethyl-N-(t-butylcarbonyl)amino}pyrimidin-4-yl]-L-4′-{(pyrrolidin-1-yl)carbonyloxy}phenylalanine] | < 10 µM |
| CCN(CC)c1ncc(N(CC)C(=O)c2cccs2)c(N[C@@H](Cc2ccc(OC(=O)N3CCCC3)cc2)C(=O)OC(C)(C)C)n1 [N-[2-diethylamino-5-{N-ethyl-N-(thien-2-ylcarbonyl)amino}pyrimidin-4-yl]-L-4′-{(pyrrolidin-1-yl)carbonyloxy}-phenylalanine t-butyl ester] | < 10 µM |
| CCN(CC)c1ncc(N(CC)C(=O)c2ccoc2)c(N[C@@H](Cc2ccc(OC(=O)N3CCCC3)cc2)C(=O)OC(C)(C)C)n1 [N-[2-diethylamino-5-{N-ethyl-N-furan-3-ylcarbonyl)amino}pyrimidin-4-yl]-L-4′-{(pyrrolidin-1-yl)carbonyloxy}-phenylalanine t-butyl ester] | < 10 µM |
| CCN(CC)c1ncc(N(CC)C(=O)C(C)(C)C)c(N[C@@H](Cc2ccc(OC(=O)N3CCCC3)cc2)C(=O)OC(C)(C)C)n1 [N-[2-diethylamino-5-{N-ethyl-N-t-butylcarbonyl)amino}pyrimidin-4-yl]-L-4′-{(pyrrolidin-1-yl)carbonyloxy}-phenylalanine t-butyl ester] | < 10 µM |
| CCN(CC)c1ncc(N(CC)C(=O)C(F)(F)F)c(N[C@@H](Cc2ccc(OC(=O)N3CCCC3)cc2)C(=O)OC(C)(C)C)n1 [N-[2-diethylamino-5-{N-ethyl-N-trifluoromethylcarbonyl)amino}pyrimidin-4-yl]-L-4′-{(pyrrolidin-1-yl)carbonyloxy}-phenylalanine t-butyl ester] | < 10 µM |
